Reference: PubChem BioAssay AID540276 (National Center for Advancing Translational Sciences (NCATS), 2011)
Several values for one entry are separate records, joined by “and”; a condition that tells them apart may be missing. Equal entries are not always repeated. The campaign covered roughly 300,000 compounds. About 5,400 (1.8%) were called active. Inconclusive means that the source gave no clear call. Such entries were picked first, then a sample of the others. The call rests on the fitted dose curve; tested in HEK293 cells. Where the call is inconclusive, the potency comes from a doubtful curve fit.

Assay: qHTS for inhibitors of binding or entry into cells for Marburg Virus
Conditions: Marburg virus pseudotyped entry inhibition, cell reporter; activity change, negative = inhibition: at 37.8 µM (top of the series) unless noted
On the % scale 0 is the no-effect control and ±100 the full control effect; potency means the concentration at half of the fitted maximal effect.

Row | Structure (SMILES) | Potency | activity change, negative = inhibition
1 | O=C(CN1CCCCCC1)NC(c1ccccc1)c1ccccc1 | inconclusive: 8.91 µM [inhibitor, partial curve, poor fit] | –
2 | C/C(=N/NC(=O)c1ccoc1C)c1ccc(N2CCOCC2)cc1 | – | inactive: -0.672%
3 | Cc1nn(Cc2c(F)c(F)c(F)c(F)c2F)c(C)c1NC(=O)c1ccc(COc2ccc(Cl)cc2Cl)o1 | inconclusive: 20.6 µM [inhibitor, partial curve] | –
4 | CN(CC(=O)Nc1ccccc1C(F)(F)F)Cc1c(O)ccc2ccccc12 | inconclusive: 14.1 µM [inhibitor, single point] | –
5 | COc1ccc2c(CC(=O)Nc3nccs3)coc2c1 | inconclusive: 4.47 µM [activator, full curve, poor fit] | –
6 | O=C(CCc1nnc(COc2ccccc2)o1)NCc1ccc(Cl)s1 | – | inactive: 14.8% [at 46.1 µM]
7 | CCOC(=O)c1cc(NC(=O)Nc2nc3ccccc3s2)c(C)nc1C | inconclusive: 0.398 µM [activator, single point] | –
8 | O=C1NN(c2ccccc2)C(=O)/C1=C/c1coc2ccccc2c1=O | inconclusive: 5.17 µM [activator, full curve, poor fit] | –
9 | CCOc1ccc(S(=O)(=O)NCc2ccncc2)cc1NC(=O)c1ccccc1 | active: 3.55 µM | –
10 | COc1ccc(S(=O)(=O)N2CCOCC2)cc1C(=O)N1CCCCC1 | – | inactive: 19%
11 | CCc1ccc2oc(-c3ccc(C)c(NC(=O)c4ccc(C#N)cc4F)c3)nc2c1 | inconclusive: 10 µM [activator, single point] | –
12 | Cc1cccc(NS(=O)(=O)Cc2ccccc2)c1C | – | inactive: 7.34%
13 | Cc1ccc(S(=O)(=O)n2nc(-c3ccco3)nc2NCc2ccc(N(C)C)cc2)cc1 | – | inactive: -0.892% [at 46.1 µM]
14 | CC(=O)c1cccc(NC(=O)c2c(C)nn(-c3ccccc3)c2Cl)c1 | – | inactive: 2.43%
15 | O=C(Nc1ccc(Cl)c(Cl)c1)O/N=C/c1ccncc1 | inconclusive: 28.2 µM [activator, single point] | –
16 | O=C1NC2(Nc3ccccc31)C(=O)Nc1ccccc12 (stereo not given) | – | inactive: 1.86%
17 | Cc1ccc(S(=O)(=O)CC(=O)N(CCCN(C)C)c2nc3ccc(C)cc3s2)cc1 | inconclusive: 8.91 µM [inhibitor, partial curve, poor fit] | –
18 | CCC(=O)Nc1cccc(SC)c1 | inconclusive: 0.13 µM [activator, full curve, poor fit] | –
19 | Cc1ccc(C(=O)CNc2ccc(F)cc2)cc1 | inconclusive: 35.5 µM [activator, single point] | –
20 | C/C(=N\Nc1nc2ccccc2[nH]1)c1ccc(N2CCOCC2)cc1 | inconclusive: 5.01 µM [inhibitor, full curve, poor fit] | –
21 | O=C1N/C(=C\c2ccccc2)C(O)=C1C=NCc1ccccc1 | inconclusive: 35.5 µM [inhibitor, single point] | –
22 | COC(=O)C1(C)COP(=O)(NC23CC4CC(CC(C4)C2)C3)OC1 (stereo not given) | – | inactive: 14.5%
23 | Cc1[nH]c2ccc(C(=O)NCCCN(C)C3CCCCC3)cc2c1C | inconclusive: 35.5 µM [inhibitor, single point] | –
24 | COc1ccc(OCc2nc(N)nc(Nc3ccccc3OC)n2)cc1 | inconclusive: 29.1 µM [inhibitor, single point] | –

Row | Structure (SMILES) | Potency | activity change, negative = inhibition
25 | CCOc1cc(/C=C2\C(=O)ON=C2C)ccc1OCc1ccccc1 | inconclusive: 0.794 µM [inhibitor, single point] | –
26 | CCc1ccc2occ(CC(=O)Nc3sc4c(c3C(=O)NCCOC)CCCC4)c2c1 | inconclusive: 6.31 µM [inhibitor, single point] | –
27 | CCOC(=O)C1CCN(c2nnc(N3CCCC3=O)s2)CC1 | inconclusive: 35.5 µM [activator, single point] | –
28 | Cc1nn(-c2ccc(Br)cc2)c(=O)c2ccccc12 | inconclusive: 1.58 µM [activator, full curve] | –
29 | CC(C)c1ccc(NC(=O)CSc2nc(=O)n(CCCN3CCOCC3)c3c2CCC3)cc1 | inconclusive: 20 µM [inhibitor, partial curve, poor fit] | –
30 | Cc1[nH]c2ccccc2c1C(=O)CSc1nc2ccccc2c(=O)n1CCCN1CCOCC1 | active: 11.2 µM | –
31 | CC(N)=NCCCC[C@@H](N)C(=O)O | inconclusive: 0.0501 µM [inhibitor, full curve, poor fit] | –
32 | O=C(CSc1nc2ccccc2o1)Nc1ccc(Cl)cc1 | – | inactive: -3.44%
33 | O=c1cc(CSc2ccc(S(=O)(=O)N3CCCCC3)cn2)nc2sccn12 | inconclusive: 1.26 µM [inhibitor, single point] | –
34 | CCN(CC)CCCN(Cc1cc2cc3c(cc2[nH]c1=O)OCO3)C(=S)NC | inconclusive: 35.5 µM [activator, partial curve, poor fit] | –
35 | O=C(CN(Cc1ccccc1Cl)C(=O)CNS(=O)(=O)c1ccc(F)cc1)NCC1CCCO1 (stereo not given) | – | inactive: 1.03% [at 46.1 µM]
36 | Cc1c(Cl)cccc1NC(=O)c1ccc(OCC(=O)NCc2ccccc2)cc1 | inconclusive: 3.16 µM [activator, full curve, poor fit] | –
37 | CCOC(=O)c1cc2n(c1C)-c1ccccc1C2=O | inconclusive: 9.2 µM [activator, partial curve, poor fit] | –
38 | COC(=O)c1ccccc1NC(=S)N(Cc1ccc2c(c1)OCO2)Cc1cc2cccc(C)c2[nH]c1=O | inconclusive: 10 µM [inhibitor, partial curve, poor fit] | –
39 | NC(N)=N/N=C/c1ccc2cccc(OCc3ccccc3)c2n1 | inconclusive: 6.31 µM [inhibitor, partial curve, poor fit] | –
40 | CC(C)OC(=O)CSc1nc2c(c(C3CC=CCC3)c1C#N)CCC2 (stereo not given) | inconclusive: 29.1 µM [inhibitor, single point] | –
41 | CC(=O)Nc1ccc2nc(NC(=O)c3ccc([N+](=O)[O-])o3)sc2c1 | inconclusive: 7.08 µM [inhibitor, partial curve, poor fit] | –
42 | O=C(NC1CCCCC1)c1ccc(S(=O)(=O)NCc2ccco2)cc1 | – | inactive: 3.39%
43 | COC(=O)[C@@]1(Cc2ccc(OC)cc2)[C@@H]2C(=CC(=O)[C@H]2CC(=O)C(=O)N2CCCC2)CN1C(=O)c1ccccc1 | inconclusive: 29.1 µM [inhibitor, single point] | –
44 | O=C(N/N=C/c1cccs1)c1ccc(NC(=O)c2ccccc2Cl)cc1 | inconclusive: 0.562 µM [activator, partial curve, poor fit] | –
45 | COc1ccc(C[C@H]2COC(=O)[C@@H]2Cc2ccc(OC3OC(CO)C(O)C(O)C3O)c(OC)c2)cc1OC (stereo not given in full) | – | inactive: -44.4%
46 | O=C(OCC(=O)N1CCOCC1)c1cc(=O)[nH]c2ccccc12 | inconclusive: 35.5 µM [activator, single point] | –
47 | CCN(CC)c1nc(-c2ccccn2)nc(-c2ccccc2)c1C#N | active: 6.31 µM | –
48 | O=C(Nc1ccc(C(F)(F)F)cc1)C1CCCCN1S(=O)(=O)c1ccccc1 (stereo not given) | inconclusive: 35.5 µM [inhibitor, single point] | –

Row | Structure (SMILES) | Potency | activity change, negative = inhibition
49 | C=CCOc1ccc(Br)cc1/C=N/O | – | inactive: -17.8%
50 | COc1ccc(NC(=O)c2oc3ccccc3c2NC(=O)C23CC4CC(CC(C4)C2)C3)cc1 | inconclusive: 5.62 µM [inhibitor, single point] | –
51 | Cc1cccc(CCNC(=O)CCCOc2cc(=O)n(C)c3ccccc23)c1 | inconclusive: 12.6 µM [inhibitor, single point] | –
52 | CCN(CC)C(=O)COc1ccc(-c2ccccc2)cc1 | – | inactive: 3.29%
53 | c1ccc(-c2cn3c4c(sc3n2)CCCC4)cc1 | active: 1.64 µM and active: 1.12 µM | –
54 | CCOc1ccc(NC(=O)c2nnn(-c3ccc(F)c(Cl)c3)c2C)cc1 | – | inactive: 1.78% [at 46.1 µM]
55 | CS(=O)(=O)Nc1ccccc1C(=O)Nc1cccc(Cl)c1 | inconclusive: 16.4 µM [inhibitor, partial curve] | –
56 | CCOC(=O)CS(=O)(=O)c1nc(-c2ccccc2)cc(C(F)(F)F)n1 | inconclusive: 0.794 µM [inhibitor, full curve, poor fit] | –
57 | CC1CC(C)CN(C(=S)SCc2nc(N)nc(Nc3ccccc3)n2)C1 (stereo not given) | inconclusive: 1.41 µM [inhibitor, single point] | –
58 | COc1ccc(-c2nc3c(c(=O)n(C)c(=O)n3C)n2CC2CC(c3ccccc3)=NO2)cc1OC (stereo not given) | inconclusive: 0.891 µM [inhibitor, full curve, poor fit] | –
59 | NC(=O)c1ccc(C2SCC(=O)N2CCc2ccccc2)cc1 (stereo not given) | inconclusive: 1.26 µM [inhibitor, single point] | –
60 | Cc1cc(NCc2ccc(Cl)cc2)n2cnnc2n1 | – | inactive: 1.52% [at 46.1 µM]
61 | Cc1cccc(OCC(=O)N2CCN(C(=O)CCC3CCCC3)CC2)c1 | inconclusive: 1.26 µM [inhibitor, single point] | –
62 | FC(F)(F)c1cccc(-n2cc(-c3ccccc3)[nH]c2=S)c1 | inconclusive: 2 µM [inhibitor, partial curve, poor fit] | –
63 | C/C(=N\Nc1ncnc2sc(C)c(C)c12)c1ccccn1 | active: 3.16 µM | –
64 | COCCCNC(=O)c1[nH]c2cc(OC)ccc2c1Sc1ccc(C)cc1 | – | inactive: -13.6% [at 46.1 µM]
65 | O=C(Nc1ccc(Cl)cc1)OCc1cncs1 | – | inactive: 0%
66 | COc1ccc(N=Nc2ccc(N)nc2N)cc1 | inconclusive: 11.2 µM [inhibitor, partial curve, poor fit] | –
67 | c1ccc2sc(NN=C3CCCC3)nc2c1 | inconclusive: 15.8 µM [inhibitor, single point] | –
68 | COC(=O)c1sccc1NC(=S)N1CCCC(C)C1 (stereo not given) | – | inactive: -6.37%
69 | O=c1[nH]c(=S)[nH]c(O)c1/C=C1/C=c2ccccc2=N1 | inconclusive: 14.1 µM [inhibitor, single point] | –
70 | O=C(NCC1CC1)Nc1ccccc1F | inconclusive: 25.1 µM [activator, single point] | –

Entries listed so far with two or more sulfur atoms (four):
Row | Structure (SMILES) | Potency | activity change, negative = inhibition
17 | Cc1ccc(S(=O)(=O)CC(=O)N(CCCN(C)C)c2nc3ccc(C)cc3s2)cc1 | inconclusive: 8.91 µM [inhibitor, partial curve, poor fit] | –
33 | O=c1cc(CSc2ccc(S(=O)(=O)N3CCCCC3)cn2)nc2sccn12 | inconclusive: 1.26 µM [inhibitor, single point] | –
57 | CC1CC(C)CN(C(=S)SCc2nc(N)nc(Nc3ccccc3)n2)C1 (stereo not given) | inconclusive: 1.41 µM [inhibitor, single point] | –
68 | COC(=O)c1sccc1NC(=S)N1CCCC(C)C1 (stereo not given) | – | inactive: -6.37%
